Values from PubChem BioAssay AID504764 (Drosophila RNAi Screening Center, 2011).
The deposit covers about 22,000 reagents; this is an unselected part of those with a known target gene and a result. Over the whole deposit, 403 (1.9%) were called active. 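Unnormalised raw counts per well; ratio z-scores behind the hit calls and whether each hit raises or lowers signal are not deposited.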 A plus sign joins genes that one reagent is predicted to hit. No sequences are given here. Not stated in the record: the amount of reagent.

Purpose: 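Genome-wide screen for regulators of Notch-driven gene expression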 (primary screen)
System: Drosophila Kc167 cells
Reagent: long dsRNA against Drosophila genes
Timing: about 5 days (4 days dsRNA, then 24 h after transfection)
Treatment: transfection of constitutively active membrane-tethered Notch lacking the extracellular domain, read 24 h later
Measured: 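Light from a Notch-responsive E(spl)m3 luciferase reporter under active Notch, with control-promoter and no-Notch reporter wells to normalise; raw counts from paired wells a and b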
Direction: induced reporter light, run 1, well a and induced reporter light, run 1, well b: higher = more light from the Notch target reporter with active Notch; control promoter light, run 1, well a and control promoter light, run 1, well b: higher = more light from the viral control promoter (cell number, transfection, viability); uninduced reporter light, run 1, well a: higher = more light from the Notch target reporter without active Notch
Hit rule: 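Hit if the duplicate-averaged log2 ratio of induced to control-promoter light gives a plate-wise z beyond ±2, or induced to uninduced beyond ±1.8; weak-control or discordant-duplicate wells dropped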
Meaning of the calls: active = modifier hit (raised or lowered Notch signal); inactive = not a hit

Target gene,dsRNA,"induced reporter light, run 1, well a","induced reporter light, run 1, well b","control promoter light, run 1, well a","control promoter light, run 1, well b","uninduced reporter light, run 1, well a",activity call
CG9641,DRSC00721,1.42e5,1.39e5,1.57e5,1.58e5,13700,inactive
CG13131,DRSC02227,88760,1.11e5,58550,86995,15260,inactive
Mst98Ca (Male-specific RNA 98Ca),DRSC16749,1.80e5,1.94e5,2.26e5,2.26e5,12010,inactive
CG32160 (retired record),DRSC22904,,,,,,inactive
CG16825,DRSC02526,1.53e5,1.73e5,1.59e5,1.79e5,15045,inactive
CG12540,DRSC19471,1.30e5,1.13e5,93470,99605,16000,inactive
CG13630,DRSC14631,17430,16545,17255,15845,1770,inactive
DIP-alpha (Dpr-interacting protein alpha),DRSC17891,1.86e5,1.76e5,2.68e5,2.41e5,12810,inactive
DIP-alpha (Dpr-interacting protein alpha),DRSC17892,36490,30125,11445,15195,9230,inactive
loco (locomotion defects),DRSC15202,1.42e5,1.65e5,1.96e5,1.52e5,13250,inactive
loco (locomotion defects),DRSC16989,34595,40615,42835,39975,3142,inactive
Rpn13 (Regulatory particle non-ATPase 13),DRSC06379,42515,48625,69000,71415,6120,inactive
Mau2,DRSC15550,1.18e5,98095,83615,73250,7905,inactive
CG11251,DRSC09825,1.98e5,2.05e5,2.61e5,2.53e5,16210,inactive
"Sr-CII (Scavenger receptor class C, type II)",DRSC07557,94280,80775,1.19e5,1.11e5,7110,inactive
CG40245 (retired record),DRSC21012,2.52e5,2.41e5,3.61e5,3.98e5,16860,inactive
CG31821,DRSC22162,,,,,,inactive
stau (staufen),DRSC07698,94460,1.16e5,1.83e5,1.83e5,8230,inactive
UK114,DRSC01973,1.42e5,1.77e5,1.61e5,1.88e5,11600,inactive
RabX5,DRSC08608,98430,1.06e5,1.31e5,1.69e5,5665,inactive
CG15403,DRSC00417,1.42e5,1.41e5,1.68e5,1.81e5,9415,inactive
Gpo1 (Glycerophosphate oxidase 1),DRSC07128,1.04e5,1.38e5,2.00e5,2.02e5,8215,inactive
CG6225,DRSC15996,90400,95580,1.05e5,74975,6300,inactive

3 neighbouring reagents from above, quoted:
Target gene,dsRNA,"induced reporter light, run 1, well a","induced reporter light, run 1, well b","control promoter light, run 1, well a","control promoter light, run 1, well b","uninduced reporter light, run 1, well a",activity call
CG13630,DRSC14631,17430,16545,17255,15845,1770,inactive
DIP-alpha (Dpr-interacting protein alpha),DRSC17891,1.86e5,1.76e5,2.68e5,2.41e5,12810,inactive
DIP-alpha (Dpr-interacting protein alpha),DRSC17892,36490,30125,11445,15195,9230,inactive

The listing continues.
Target gene,dsRNA,"induced reporter light, run 1, well a","induced reporter light, run 1, well b","control promoter light, run 1, well a","control promoter light, run 1, well b","uninduced reporter light, run 1, well a",activity call
RYBP (Ring and YY1 Binding Protein),DRSC04117,81155,83815,45115,53490,4310,inactive
Galphaq (G protein alpha subunit q),DRSC07432,1.49e5,1.42e5,1.58e5,1.62e5,14225,inactive
CG34276,DRSC15811,1.90e5,2.08e5,2.20e5,2.32e5,17575,inactive
mus301 (mutagen-sensitive 301),DRSC10939,3.23e5,2.38e5,3.62e5,3.11e5,15210,inactive
CG34029,DRSC03909,99610,79660,74800,78755,8660,inactive
Rh5 (Rhodopsin 5),DRSC03412,2.86e5,2.38e5,1.71e5,2.12e5,16810,inactive
CG31082 (retired record),DRSC13775,1.49e5,1.30e5,1.37e5,1.72e5,11315,inactive
l(2)k05819 (lethal (2) k05819),DRSC00826,1.71e5,1.97e5,1.82e5,2.19e5,16170,inactive
CG33969 + fbl,DRSC11886,82820,77890,1.08e5,94275,8115,inactive
CG9630,DRSC16527,1.22e5,1.11e5,81800,70030,9305,inactive
Fa2h (Fatty acid 2-hydroxylase),DRSC06608,2.02e5,1.79e5,2.75e5,2.43e5,17020,inactive
Fa2h (Fatty acid 2-hydroxylase),DRSC06609,1.14e5,1.36e5,1.87e5,1.69e5,11095,inactive
Pmvk (Phosphomevalonate kinase),DRSC02032,33650,30615,41675,30510,2735,inactive
CG42816 + CG42815,DRSC11230,1.64e5,1.76e5,2.14e5,1.96e5,9310,inactive
alt (aluminum tubes),DRSC15315,1.68e5,1.55e5,2.04e5,1.81e5,14135,inactive
BtbVII (BTB-protein-VII),DRSC08151,51565,30195,82040,91455,6040,inactive
BtbVII (BTB-protein-VII),DRSC08415,1.18e5,1.66e5,1.26e5,91485,12192,inactive
Neu2 (Neuroectoderm-expressed 2),DRSC11819,1.10e5,1.07e5,83495,65125,6685,inactive
CG12012,DRSC08220,1.21e5,1.25e5,1.51e5,1.43e5,5305,inactive
Uhg2 + snoRNA:Me18S-G1620 + snoRNA:U14:30Ea,DRSC01100,92330,84040,1.08e5,1.17e5,5480,inactive
Keap1,DRSC15528,1.57e5,1.67e5,1.58e5,1.39e5,14660,inactive
Fum3 (Fumarase 3),DRSC10592,1.33e5,1.12e5,2.27e5,1.44e5,9080,inactive
D1 (D1 chromosomal protein),DRSC16638,1.06e5,1.03e5,86655,89505,8440,inactive
TM4SF (Transmembrane 4 superfamily),DRSC04661,1.87e5,2.16e5,1.76e5,1.63e5,15140,inactive
CG4282,DRSC06865,87710,1.12e5,1.92e5,2.00e5,8695,inactive
CG18586,DRSC10325,2.62e5,1.83e5,2.39e5,2.61e5,13250,inactive
HmgD (High mobility group protein D),DRSC04619,1.46e5,1.67e5,1.19e5,1.26e5,11870,inactive
